{"source": "patent US20250085283A1", "about": "“METHOD FOR QUANTIFYING NICOTINAMIDE ADENINE DINUCLEOTIDE (NAD+) OR NICOTINAMIDE MONONUCLEOTIDE (NMN), AND KIT AND FILTER PAPER FOR PERFORMING THE METHOD” (Teijin Limited, priority 2022, published 2025)", "key": {"[1]": {"assay": "Optimization study of extraction buffer: NAD+ and NMN quantified by LC-MS/MS in blood or blood cells", "design": "species or system rat", "settings": "for Extraction efficiency, Blood cells, Evaluation / Concentration, Blood cells, Mean / Extraction efficiency, Blood cells, Mean: rat blood cells; for Extraction efficiency, Blood cells, Mean / Extraction efficiency, Blood, Mean: relative to 100:0 as 100%; for Extraction efficiency, Blood, Evaluation / Concentration, Blood, Mean / Extraction efficiency, Blood, Mean: rat whole blood"}, "[2]": {"assay": "Chilled storage stability of NAD+ and NMN in blood spotted on filter paper (DBS, LC-MS/MS)", "type": "physicochemical, human", "description": "(§1) A filter paper, to which blood derived from a test subject is added (i.e., corresponding to a filter paper in Step 1 of the present invention), was searched for the optimal one for quantifying NAD+ and NMN when the filter paper with added blood derived from the test subject is stored in the refrigerator for a certain period of time.\nFrom 5 subjects (adult men and women) per test, approximately 120 μL of blood (amount of 2 collection containers of the kit) was sampled by self-collection using an Micro Blood Collection Kit (Micro Blood Science Co., Ltd.), and was left to stand on ice until sample processing. The subjects were fasted on the morning of the sampling day, and samplings were performed around 9:00 am. The test was performed four times in total, with a total of 19 people performing evaluations, excluding one person due to insufficient sample blood volume.\nThe sampled blood was collected into 1.5 mL microtubes for each subject and mixed by gentle pipetting. Four types of filter papers (Whatman FTA DMPK-A Card/GE healthcare, QIAcard FTA DMPK-B Card/QIAGEN, QIAcard FTA DMPK-C Card/QIAGEN, Whatman 903 Protein saver card/Cytiva) were each spotted with 5 μL of blood (dropped/added) at multiple areas, sealed in a moisture absorption standard pouch (Moisture absorption-kun (registered trademark)/Maruto Sangyo Co., Ltd.), and stored in the refrigerator. Next, after chilled storing the blood-spotted filter paper for 2 days, 2 weeks (14 days or 15 days), or 1 month (30 days), the blood-spotted areas were cut out and collected in a 2 mL microtube. After adding 300 μL of a mixed aqueous solution of internal standard substances (NAD+-d4 and NMN-d4/Toronto Research Chemicals, Inc.) thereto and stirring using a vortex mixer, the mixture was mixed with a micromixer (TOMY MICRO TUBE MIXER MT-400, stirring speed 5) for 30 minutes at room temperature. The blood extract solution was dispensed by each 150 μL portion into a microtube, 300 μL of acetonitrile was added thereto, and the mixture was stirred using a vortex mixer, followed by centrifugation (24,250×g, 10 minutes, 4° C.). After centrifugation, 40 μL of the supernatant was dispensed into a vial and measured by LC-MS/MS.\nIn contrast, as a sample for initial values, 5 μL of blood was collected into a 2 mL microtube (no spotted filter paper), and 300 μL of a mixed aqueous solution of internal standard substances (NAD-d4 and NMN-d4/Toronto Research Chemicals, Inc.) was added thereto and stirred using a vortex mixer, and then the mixture was mixed using a micromixer (TOMY MICRO TUBE MIXER MT-400, stirring speed 5) for 30 minutes at room temperature. The blood extract solution was dispensed by each 150 μL portion into a microtube, 300 μL of acetonitrile was added thereto, and the mixture was stirred using a vortex mixer, followed by centrifugation (24,250×g, 10 minutes, 4° C.). After centrifugation, 40 μL of the supernatant was dispensed into a vial and measured by LC-MS/MS."}, "[3]": {"assay": "Room temperature storage stability of NAD+ and NMN in blood spotted on filter paper (DBS, LC-MS/MS)", "type": "physicochemical, human", "description": "as §1, with “at room temperature” for “in the refrigerator”\nA part of the blood spotted-filter paper prepared in Example 2 was sealed in a moisture absorption standard pouch (Moisture absorption-kun (registered trademark)/Maruto Sangyo Co., Ltd.) and then stored at room temperature. After storage at room temperature for 2 days, 1 week (7 days), or 2 weeks (15 days), the blood-spotted areas were cut out and collected in a 2 mL microtube. After performing the same treatment as in Example 2, measurement by LC-MS/MS was performed under the same conditions as in Example 2."}, "[4]": {"assay": "Extraction efficiency of NAD+ and NMN from filter paper (with vs without filter paper)", "design": "species or system human", "settings": "for Extraction efficiency (mean): concentration with filter paper / without filter paper"}, "[5]": {"settings": "extraction buffer water:acetonitrile 0:100"}, "[6]": {"settings": "extraction buffer water:acetonitrile 20:80"}, "[7]": {"settings": "extraction buffer water:acetonitrile 40:60"}, "[8]": {"settings": "extraction buffer water:acetonitrile 60:40 (NAD+ line prints 40:40)"}, "[9]": {"settings": "extraction buffer water:acetonitrile 80:20"}, "[10]": {"settings": "extraction buffer water:acetonitrile 100:0"}}, "data": [{"smiles": "NC(=O)c1ccc[n+]([C@@H]2O[C@H](COP(=O)([O-])OP(=O)(O)OC[C@H]3O[C@@H](n4cnc5c(N)ncnc54)[C@H](O)[C@@H]3O)[C@@H](O)[C@H]2O)c1", "note": "[NAD+, nicotinamide adenine dinucleotide]", "values": [{"measurement": "Extraction efficiency, Blood cells, Evaluation", "setting": "[1]; [5]", "result": "Poor (Poor (<40%))"}, {"measurement": "Concentration, Blood cells, Mean", "setting": "[1]; [6]", "result": 31.53, "unit": "µmol/L"}, {"measurement": "Extraction efficiency, Blood cells, Evaluation", "setting": "[1]; [6]", "result": "Poor (Poor (<40%))"}, {"measurement": "Extraction efficiency, Blood cells, Mean", "setting": "[1]; [6]", "result": 9.1, "unit": "%"}, {"measurement": "Concentration, Blood cells, Mean", "setting": "[1]; [7]", "result": 203.81, "unit": "µmol/L"}, {"measurement": "Extraction efficiency, Blood cells, Evaluation", "setting": "[1]; [7]", "result": "Average (Average (≥ 40%))"}, {"measurement": "Extraction efficiency, Blood cells, Mean", "setting": "[1]; [7]", "result": 55.9, "unit": "%"}, {"measurement": "Concentration, Blood cells, Mean", "setting": "[1]; [8]", "result": 212.89, "unit": "µmol/L"}, {"measurement": "Extraction efficiency, Blood cells, Evaluation", "setting": "[1]; [8]", "result": "Average (Average (≥ 40%))"}, {"measurement": "Extraction efficiency, Blood cells, Mean", "setting": "[1]; [8]", "result": 58.8, "unit": "%"}, {"measurement": "Concentration, Blood cells, Mean", "setting": "[1]; [9]", "result": 232.44, "unit": "µmol/L"}, {"measurement": "Extraction efficiency, Blood cells, Evaluation", "setting": "[1]; [9]", "result": "Good (Good (≥60%))"}, {"measurement": "Extraction efficiency, Blood cells, Mean", "setting": "[1]; [9]", "result": 64.3, "unit": "%"}, {"measurement": "Concentration, Blood cells, Mean", "setting": "[1]; [10]", "result": 380.82, "unit": "µmol/L"}, {"measurement": "Extraction efficiency, Blood cells, Evaluation", "setting": "[1]; [10]", "result": "Excellent (Excellent (≥80%))"}, {"measurement": "Extraction efficiency, Blood, Evaluation", "setting": "[1]; [5]", "result": "Poor (Poor (<40%))"}, {"measurement": "Concentration, Blood, Mean", "setting": "[1]; [6]", "result": 18.28, "unit": "µmol/L"}, {"measurement": "Extraction efficiency, Blood, Evaluation", "setting": "[1]; [6]", "result": "Poor (Poor (<40%))"}, {"measurement": "Extraction efficiency, Blood, Mean", "setting": "[1]; [6]", "result": 9.4, "unit": "%"}, {"measurement": "Concentration, Blood, Mean", "setting": "[1]; [7]", "result": 124.05, "unit": "µmol/L"}, {"measurement": "Extraction efficiency, Blood, Evaluation", "setting": "[1]; [7]", "result": "Good (Good (≥60%))"}, {"measurement": "Extraction efficiency, Blood, Mean", "setting": "[1]; [7]", "result": 62.5, "unit": "%"}, {"measurement": "Concentration, Blood, Mean", "setting": "[1]; [8]", "result": 141.35, "unit": "µmol/L"}, {"measurement": "Extraction efficiency, Blood, Evaluation", "setting": "[1]; [8]", "result": "Good (Good (≥60%))"}, {"measurement": "Extraction efficiency, Blood, Mean", "setting": "[1]; [8]", "result": 71.8, "unit": "%"}, {"measurement": "Concentration, Blood, Mean", "setting": "[1]; [9]", "result": 135.60, "unit": "µmol/L"}, {"measurement": "Extraction efficiency, Blood, Evaluation", "setting": "[1]; [9]", "result": "Good (Good (≥60%))"}, {"measurement": "Extraction efficiency, Blood, Mean", "setting": "[1]; [9]", "result": 68.0, "unit": "%"}, {"measurement": "Concentration, Blood, Mean", "setting": "[1]; [10]", "result": 200.78, "unit": "µmol/L"}, {"measurement": "Extraction efficiency, Blood, Evaluation", "setting": "[1]; [10]", "result": "Excellent (Excellent (≥80%))"}, {"measurement": "Concentration (mean)", "setting": "[2]; human blood on 903 card, chilled storage for 1 month", "result": 26.23, "unit": "µM"}, {"measurement": "Concentration (mean)", "setting": "[2]; human blood on 903 card, chilled storage for 2 weeks", "result": 24.33, "unit": "µM"}, {"measurement": "Concentration (mean)", "setting": "[2]; human blood on 903 card, chilled storage for 2 days", "result": 23.95, "unit": "µM"}, {"measurement": "Concentration (mean)", "setting": "[2]; human blood on DMPK-A card, chilled storage for 1 month", "result": 20.69, "unit": "µM"}, {"measurement": "Concentration (mean)", "setting": "[2]; human blood on DMPK-A card, chilled storage for 2 weeks", "result": 24.37, "unit": "µM"}, {"measurement": "Concentration (mean)", "setting": "[2]; human blood on DMPK-A card, chilled storage for 2 days", "result": 24.05, "unit": "µM"}, {"measurement": "Concentration (mean)", "setting": "[2]; human blood on DMPK-B card, chilled storage for 1 month", "result": 24.55, "unit": "µM"}, {"measurement": "Concentration (mean)", "setting": "[2]; human blood on DMPK-B card, chilled storage for 2 weeks", "result": 27.43, "unit": "µM"}, {"measurement": "Concentration (mean)", "setting": "[2]; human blood on DMPK-B card, chilled storage for 2 days", "result": 23.75, "unit": "µM"}, {"measurement": "Concentration (mean)", "setting": "[2]; human blood on DMPK-C card, chilled storage for 1 month", "result": 16.74, "unit": "µM"}, {"measurement": "Concentration (mean)", "setting": "[2]; human blood on DMPK-C card, chilled storage for 2 weeks", "result": 20.88, "unit": "µM"}, {"measurement": "Concentration (mean)", "setting": "[2]; human blood on DMPK-C card, chilled storage for 2 days", "result": 22.02, "unit": "µM"}, {"measurement": "Concentration (mean)", "setting": "[2]; human blood, filter paper: none, storage for 0 days (initial value, Table 8)", "result": 31.89, "unit": "µM"}, {"measurement": "Concentration (mean)", "setting": "[3]; human blood on 903 card, room temperature storage for 2 weeks", "result": 17.15, "unit": "µM"}, {"measurement": "Concentration (mean)", "setting": "[3]; human blood on 903 card, room temperature storage for 2 days", "result": 20.63, "unit": "µM"}, {"measurement": "Concentration (mean)", "setting": "[3]; human blood on DMPK-A card, room temperature storage for 2 weeks", "result": 17.34, "unit": "µM"}, {"measurement": "Concentration (mean)", "setting": "[3]; human blood on DMPK-A card, room temperature storage for 2 days", "result": 21.71, "unit": "µM"}, {"measurement": "Concentration (mean)", "setting": "[3]; human blood on DMPK-B card, room temperature storage for 1 week", "result": 26.95, "unit": "µM"}, {"measurement": "Concentration (mean)", "setting": "[3]; human blood on DMPK-B card, room temperature storage for 2 weeks", "result": 22.65, "unit": "µM"}, {"measurement": "Concentration (mean)", "setting": "[3]; human blood on DMPK-B card, room temperature storage for 2 days", "result": 25.47, "unit": "µM"}, {"measurement": "Concentration (mean)", "setting": "[3]; human blood on DMPK-C card, room temperature storage for 2 weeks", "result": 17.02, "unit": "µM"}, {"measurement": "Concentration (mean)", "setting": "[3]; human blood on DMPK-C card, room temperature storage for 2 days", "result": 17.23, "unit": "µM"}, {"measurement": "Concentration (mean)", "setting": "[3]; human blood, filter paper: none, storage for 0 days (initial value, Table 12)", "result": 31.95, "unit": "µM"}, {"measurement": "Extraction efficiency, Evaluation", "setting": "[4]; 903 card", "result": "Average (Average (≥75%))"}, {"measurement": "Extraction efficiency (mean)", "setting": "[4]; 903 card", "result": 77.2, "unit": "%"}, {"measurement": "Extraction efficiency, Evaluation", "setting": "[4]; DMPK-A card", "result": "Excellent: (Excellent (≥90%))"}, {"measurement": "Extraction efficiency (mean)", "setting": "[4]; DMPK-A card", "result": 95.1, "unit": "%"}, {"measurement": "Extraction efficiency, Evaluation", "setting": "[4]; DMPK-B card", "result": "Excellent: (Excellent (≥90%))"}, {"measurement": "Extraction efficiency (mean)", "setting": "[4]; DMPK-B card", "result": 90.9, "unit": "%"}, {"measurement": "Extraction efficiency, Evaluation", "setting": "[4]; DMPK-C card", "result": "Poor (Poor (<75%))"}, {"measurement": "Extraction efficiency (mean)", "setting": "[4]; DMPK-C card", "result": 72.9, "unit": "%"}, {"measurement": "Concentration (mean)", "setting": "[4]; human blood on 903 card, no storage", "result": 24.47, "unit": "µM"}, {"measurement": "Concentration (mean)", "setting": "[4]; human blood on DMPK-A card, no storage", "result": 29.65, "unit": "µM"}, {"measurement": "Concentration (mean)", "setting": "[4]; human blood on DMPK-B card, no storage", "result": 28.75, "unit": "µM"}, {"measurement": "Concentration (mean)", "setting": "[4]; human blood on DMPK-C card, no storage", "result": 22.44, "unit": "µM"}, {"measurement": "Concentration (mean)", "setting": "[4]; human blood, filter paper: none (Table 16)", "result": 31.81, "unit": "µM"}]}]}
